# ± gives the standard deviation of the averaged measurements. This is one part of the list.
# How the values were obtained:
# Test in all cases: NP40-soluble protein abundance relative to vehicle (solubility fold change) (ratio); higher = more soluble protein in presence of GTP
# [1] = target: T1, F5H7W8 and related entries (UniProt Q96C57)
# T1 sequence (whole entry): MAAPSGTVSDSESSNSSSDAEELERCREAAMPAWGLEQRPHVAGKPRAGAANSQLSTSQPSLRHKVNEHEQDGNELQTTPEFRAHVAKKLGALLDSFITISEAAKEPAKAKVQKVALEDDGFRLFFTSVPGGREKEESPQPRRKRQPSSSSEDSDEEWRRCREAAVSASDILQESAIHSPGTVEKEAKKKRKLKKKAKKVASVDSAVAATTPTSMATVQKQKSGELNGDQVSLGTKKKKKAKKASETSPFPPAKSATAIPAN
# How it was run: (§1)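 Each value is a fold change relative to the detergent-processed vehicle, calculated per replicate from vsn-normalised intensities. Jurkat crude lysate received eight concentrations (0.1 to 10 mM) for 10 min at room temperature and 3 min at 37 °C, then was solubilised in 0.8% NP40 with benzonase (60 min, 4 °C). The ultracentrifuged supernatant was TMT-labelled and run by LC-MS/MS in three independent experiments.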
# [2] = target: T2, F8VUC5 and related entries (UniProt P61923)
# T2 sequence (whole entry): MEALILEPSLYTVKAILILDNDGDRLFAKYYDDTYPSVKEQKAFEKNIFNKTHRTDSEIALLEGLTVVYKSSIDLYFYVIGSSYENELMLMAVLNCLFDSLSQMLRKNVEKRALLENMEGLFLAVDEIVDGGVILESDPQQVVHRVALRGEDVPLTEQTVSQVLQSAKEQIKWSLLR
# How it was run: as §1
# [3] = target: T3, F8VXK3 and related entries (UniProt Q9NPF2)
# T3 sequence (whole entry): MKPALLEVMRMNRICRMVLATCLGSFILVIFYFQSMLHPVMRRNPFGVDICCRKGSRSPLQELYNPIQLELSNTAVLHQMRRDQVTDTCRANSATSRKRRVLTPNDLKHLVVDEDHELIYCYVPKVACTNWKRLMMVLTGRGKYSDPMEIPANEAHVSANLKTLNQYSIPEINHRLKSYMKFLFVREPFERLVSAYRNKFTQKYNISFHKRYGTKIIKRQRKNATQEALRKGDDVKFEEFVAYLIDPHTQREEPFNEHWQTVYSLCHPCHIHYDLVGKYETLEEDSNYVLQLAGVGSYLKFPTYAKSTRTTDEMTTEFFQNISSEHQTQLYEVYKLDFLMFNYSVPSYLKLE
# How it was run: as §1
# [4] = target: T4, F8W8H5 and related entries (UniProt Q969Q5)
# T4 sequence (whole entry): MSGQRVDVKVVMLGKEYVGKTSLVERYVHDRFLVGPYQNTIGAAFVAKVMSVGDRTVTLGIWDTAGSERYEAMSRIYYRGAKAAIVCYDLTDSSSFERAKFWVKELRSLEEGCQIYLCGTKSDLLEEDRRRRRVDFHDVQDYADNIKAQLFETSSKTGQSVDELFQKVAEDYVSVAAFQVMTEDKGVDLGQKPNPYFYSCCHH
# How it was run: as §1
structure (smiles),measurement,setting,value
Nc1nc2c(ncn2[C@@H]2O[C@H](COP(=O)(O)OP(=O)(O)OP(=O)(O)O)[C@@H](O)[C@H]2O)c(=O)[nH]1 [guanosine triphosphate],NP40-soluble protein abundance,[1]; concentration: 1mM,1.07 ± 0.096
same,NP40-soluble protein abundance,[1]; concentration: 2mM,1.11 ± 0.19
same,NP40-soluble protein abundance,[1]; concentration: 4mM,1.13 ± 0.099
same,NP40-soluble protein abundance,[1]; concentration: 6mM,1.18 ± 0.15
same,NP40-soluble protein abundance,[1]; concentration: 8mM,1.19 ± 0.22
same,NP40-soluble protein abundance,[1]; concentration: 10mM,1.42 ± 0.2
same,NP40-soluble protein abundance,[2]; concentration: 0.1mM,0.905 ± 0.044
same,NP40-soluble protein abundance,[2]; concentration: 0.5mM,0.912 ± 0.043
same,NP40-soluble protein abundance,[2]; concentration: 1mM,0.905 ± 0.042
same,NP40-soluble protein abundance,[2]; concentration: 2mM,0.885 ± 0.031
same,NP40-soluble protein abundance,[2]; concentration: 4mM,0.897 ± 0.062
same,NP40-soluble protein abundance,[2]; concentration: 6mM,0.877 ± 0.023
same,NP40-soluble protein abundance,[2]; concentration: 8mM,0.872 ± 0.056
same,NP40-soluble protein abundance,[2]; concentration: 10mM,0.875 ± 0.065
same,NP40-soluble protein abundance,[3]; concentration: 0.1mM,1.04 ± 0.06
same,NP40-soluble protein abundance,[3]; concentration: 0.5mM,0.992 ± 0.056
same,NP40-soluble protein abundance,[3]; concentration: 1mM,0.975 ± 0.035
same,NP40-soluble protein abundance,[3]; concentration: 2mM,0.988 ± 0.046
same,NP40-soluble protein abundance,[3]; concentration: 4mM,1.05 ± 0.033
same,NP40-soluble protein abundance,[3]; concentration: 6mM,0.987 ± 0.032
same,NP40-soluble protein abundance,[3]; concentration: 8mM,1.03 ± 0.03
same,NP40-soluble protein abundance,[3]; concentration: 10mM,1.05 ± 0.055
same,NP40-soluble protein abundance,[4]; concentration: 0.1mM,1.11 ± 0.077
same,NP40-soluble protein abundance,[4]; concentration: 0.5mM,1.05 ± 0.093
same,NP40-soluble protein abundance,[4]; concentration: 1mM,0.971 ± 0.11
same,NP40-soluble protein abundance,[4]; concentration: 2mM,0.984 ± 0.11
same,NP40-soluble protein abundance,[4]; concentration: 4mM,0.992 ± 0.073
same,NP40-soluble protein abundance,[4]; concentration: 6mM,0.946 ± 0.075
same,NP40-soluble protein abundance,[4]; concentration: 8mM,0.919 ± 0.047
same,NP40-soluble protein abundance,[4]; concentration: 10mM,0.896 ± 0.13

# Rewritten as tab-separated lines: entries from further up
structure (smiles)	measurement	setting	value
Nc1nc2c(ncn2[C@@H]2O[C@H](COP(=O)(O)OP(=O)(O)OP(=O)(O)O)[C@@H](O)[C@H]2O)c(=O)[nH]1 [guanosine triphosphate]	NP40-soluble protein abundance	[2]; concentration: 0.1mM	0.905 ± 0.044
same	NP40-soluble protein abundance	[2]; concentration: 0.5mM	0.912 ± 0.043
